According to patent EP1847550A2, “Peptides effective in the treatment of tumors and other conditions requiring the removal or destruction of cells” (NYMOX CORPORATION, priority 2001, dated 2007):
Part of at least one peptide drawing is inferred or uncertain, most often the ends. Ends that are not written are not given here.

System: Rat prostate
Assay: Intraprostatic infusion in rats, histology of the prostate gland after 72 hours
Format: in vivo
Conditions: 300 µl of 1 mg/mL in PBS pH 7.4 (1.0 mg/kg), sacrificed after 72 hours, H & E histology
Protocol: Four rats were anesthetized with ether and given NTP peptide #7 by intraprostatic infusion. The injections consisted of 300 µl of NTP peptide #7 1 mg/mL in PBS pH 7.4. (1.0 mg/kg). Controls received injections of PBS alone or no injection. Rats were painlessly sacrificed after 72 hours. Prostate glands were dissected, fixed in 10% buffered formalin for 24 hours, embedded in paraffin, sectioned, and stained with H & E. For each animal the entire prostate gland was embedded and sectioned. All stained sections were examined histologically.
Normal rats were injected in the prostate as in the above Example 2, except they were injected with NTP peptide #17. Rats were painlessly sacrificed after 72 hours and their prostate glands were examined as in Example 2.

For “PASASPVAGITGM [NTP peptide #17, Pro-Ala-Ser-Ala-Ser-Pro-Val-Ala-Gly-Ile-Thr-Gly-Met]”, the “effect on tissue at sites of injection (prostate)” value was “produced significant cell loss and atrophy in the prostate”.
